Data from patent publication US20110052565A1.
No constants are given. Whether binding was seen depends on the method and setting. Some entries that bind do so weakly or less than the wild type.

Legend:
[1] = target: protein A (UniProt P38507); experiment: ELISA, immobilized VH, protein A/HRP conjugate
[2] = target: protein A (UniProt P38507); experiment: protein A binding, second mark of the column Monomer/protein A binding
[3] = target: T1, porcine pancreatic α-amylase (porcine) (UniProt P00690); experiment: ELISA, immobilized porcine pancreatic α-amylase, His6-tagged VH, anti-His-IgG/HRP
T1 sequence (looked up): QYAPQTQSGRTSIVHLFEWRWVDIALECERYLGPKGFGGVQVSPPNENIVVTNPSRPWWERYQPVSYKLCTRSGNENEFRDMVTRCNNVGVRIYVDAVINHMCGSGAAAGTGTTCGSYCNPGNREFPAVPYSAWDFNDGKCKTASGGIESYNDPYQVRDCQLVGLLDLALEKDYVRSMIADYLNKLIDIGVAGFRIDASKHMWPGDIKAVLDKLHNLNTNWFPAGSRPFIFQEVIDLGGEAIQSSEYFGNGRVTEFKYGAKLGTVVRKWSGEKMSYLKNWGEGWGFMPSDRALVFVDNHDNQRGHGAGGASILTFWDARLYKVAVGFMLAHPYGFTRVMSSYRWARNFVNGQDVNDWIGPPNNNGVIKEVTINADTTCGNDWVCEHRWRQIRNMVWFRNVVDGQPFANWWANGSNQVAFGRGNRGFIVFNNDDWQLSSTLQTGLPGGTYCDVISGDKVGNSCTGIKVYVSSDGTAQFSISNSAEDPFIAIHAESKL

[4] = target: T1, porcine pancreatic α-amylase (porcine); experiment: phage ELISA, round 3 of heat denaturation panning; VH displayed on phage; member by Table 2, column R3
[5] = target: protein A (UniProt P38507); experiment: SPR, protein A immobilized, VH at 0.1-2 µM
[6] = target: protein A (UniProt P38507); experiment: SPR, protein A immobilized, VH at 0.1-4 µM

B1: huVHAm302 (protein)
VH: QVQLVESGGGLIKPGGSLRLSCAASGDTVSDESMTWVRQAPGKGLEWVSAISSSGGSTYYADSVKGRFTISRDNSKNTVYLQMNSLRAEDTAVYYCVTDNRSCQTSLCTSTTRSWGQGTMVTVSSGSEQKLSEEDLNHHHHHH
modifications: N-terminus pyroglutamine (pyroQ)
In the case of B1, the binding [1] is reported as “binds” and the binding [2] is reported as “binds”.

B2: huVHAm304 (protein, not shown: small tags and cut ends)
VH: VQLVESGGGLIEPGGSLRLSCAASGFSFSDEGMAWVRQAPGKGLEWVSAISSSGGSTYYADSVKGRFTISRDNSKNTVYLQMNSLRAEDTAVYYCVRLPKQCTSPDCETEVSSWGQRTMVTVSS
B2 was tested, and the binding [3] was “binds”, the binding [4] was “binds” and the binding [1] was “binds”. For the same binder, the binding [2] was “binds”.

B3: huVHAm309 (protein, not shown: small tags and cut ends)
VH: QVQLVESGGGLIKPGGSLRLSCAASGVNFSNEGMAWVRQAPGKGLEWVSAISSSGGSTYYADSVKGRFTISRDNSKNTVYLQMNSLRAEDTAVYYCVTAQRACANSPCPGSITSWGQETMVTVSS
B3 was tested, and the binding [5] was “binds”, the binding [1] was “binds” and the binding [2] was “binds”.

B4: huVHAm416 (protein, not shown: small tags and cut ends)
VH: QVQLVESGGGLIKPGGSLRLSCAASGVSFTDDCMAWVRQAPGKGLEWVSAISSSGGSTYYADSVKGRFTISRDNSKNTVYLQMNSLRAEDTAVYYCVADHTQCRQPECESQLCSWGQGTMVTVSS
B4 was tested, and the binding [6] was “binds”, the binding [1] was “binds” and the binding [2] was “binds”.

B5: huVHAm428 (protein, not shown: small tags and cut ends)
VH: QVQLVESGGGLIKPGGSLRLSCAASGFSLSDDCMGWVRQAPGKGLEWVSAISSSGGSTYYADSVKGRFTISRDNSKNTVYLQMNSLRAEDTAVYYCVTGNQACKHEPWPDEALLLGPRDNVTVSS
For B5, the binding [1] was “binds” and the binding [2] was “binds”.

B6: huVHAm315 (protein, not shown: small tags and cut ends)
VH: QVQLVESGGGLIKPGGSLRLSCAASGDMFSSEGMAWVRQAPGKGLEWVSAISSSGGSTYYADSVKGRFTISRDNSKNTVYLQMNSLRAEDTAVYYCVAAPTTCTSHNCAEPFRSWGQETMVTVSS
For B6, the binding [1] was “binds” and the binding [2] was “binds”.

B7: huVHAm316 (protein, not shown: small tags and cut ends)
VH: QVQLVESGGGLIKPGGSLRLSCAASGDRFTYESMGWVRQAPGKGLEWVSAISSSGGSTYYADSVKGRFTISRDNSKNTVYLQMNSLRAEDTAVYYCVALETACTRPACAHTPRFWGQGTMVTVSS
In the case of B7, the binding [1] is reported as “binds” and the binding [2] is reported as “binds”.

B8: huVHAm427 (protein, not shown: small tags and cut ends)
VH: QVQLVESGGGLIKPGGSLRLSCAASGVTLSPECMAWVRQAPGKGLEWVSAISSSGGSTYYADSVKGRFTISRDNSKNTVYLQMNSLRAEDTAVYYCVSCEGENAFWGQGTMVTASS
For B8, the binding [1] was “binds” and the binding [2] was “binds”.

B9: huVHAm431 (protein, not shown: small tags and cut ends)
VH: QVQLVESGGGLIKPGGSLRLSCAASGYTVSSECMGWVRQAPGKGLEWVSAISSSGGSTYYADSVKGRFTISRDNSKNTVYLQMNSLRAEDTAVYYCVRDSKNCHDKDCTRPYCSWGQGTMVTVSS
B9 was tested, and the binding [1] was “binds” and the binding [2] was “binds”.
